Measured values taken from patent publication US11285149B2, “Enhanced immunotherapy of cancer using targeted transcriptional modulators” (DANA-FARBER CANCER INSTITUTE, INC., priority 2017, dated 2022).
At least one compound was matched to its structure with a doubt left.

The chains behind the UniProt entries cited, without tags or fusion partners.
UniProt P40763, whole entry: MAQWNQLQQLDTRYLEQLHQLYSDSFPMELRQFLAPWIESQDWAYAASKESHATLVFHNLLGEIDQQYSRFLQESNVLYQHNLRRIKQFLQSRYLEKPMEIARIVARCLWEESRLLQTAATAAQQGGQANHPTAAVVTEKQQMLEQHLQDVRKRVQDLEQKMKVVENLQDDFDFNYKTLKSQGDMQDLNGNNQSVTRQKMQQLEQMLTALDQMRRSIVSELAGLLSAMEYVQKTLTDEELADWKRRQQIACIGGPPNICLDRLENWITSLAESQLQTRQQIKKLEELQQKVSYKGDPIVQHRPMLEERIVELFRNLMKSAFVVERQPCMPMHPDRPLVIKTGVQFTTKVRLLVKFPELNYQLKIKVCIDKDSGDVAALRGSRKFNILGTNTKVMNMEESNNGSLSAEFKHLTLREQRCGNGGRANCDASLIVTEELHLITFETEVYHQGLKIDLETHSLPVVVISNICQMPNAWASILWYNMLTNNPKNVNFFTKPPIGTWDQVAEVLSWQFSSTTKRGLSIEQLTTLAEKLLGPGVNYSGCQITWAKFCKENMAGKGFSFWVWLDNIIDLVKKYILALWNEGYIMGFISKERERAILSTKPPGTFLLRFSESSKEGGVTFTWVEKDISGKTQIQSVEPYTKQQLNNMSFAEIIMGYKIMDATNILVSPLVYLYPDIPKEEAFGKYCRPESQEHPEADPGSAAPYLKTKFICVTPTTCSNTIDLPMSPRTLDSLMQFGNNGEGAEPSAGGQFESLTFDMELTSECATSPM

Tests used:
human glioma cell lines = test: Growth of human glioma cell lines; type: cell-based
murine glioma cell lines = test: Growth of murine glioma cell lines; type: cell-based
[1] = test system: human glioma neurospheres; test: Growth of human glioma neurospheres; type: cell-based
STAT3 [2] = target: T1, STAT3 (Homo sapiens, UniProt P40763); test: Inhibition of STAT3 function and its mechanism
STAT3 [3] = target: T1, STAT3; settings: at concentrations that can safely be achieved in humans for months at a time; cited from earlier work
[4] = test system: U-87 MG glioblastoma cells; test: mRNA expression of STAT3-regulated immunomodulatory genes by quantitative RT-PCR in U-87 MG cells; type: cell-based; settings: 5 μM for 6 hours, quantitative RT-PCR normalized to GAPDH (FIG. 2)
GL261 glioblastoma cells = test: Orthotopic GL261 glioma model in syngeneic mice, bioluminescent imaging and survival; type: in vivo, C57BL/6 mice

| SMILES | growth of human glioma cell lines (human glioma cell lines) | growth of murine glioma cell lines (murine glioma cell lines) | growth of human glioma neurospheres [1] | STAT3 tyrosine phosphorylation (STAT3 [2]; kinase independent mechanism) | inhibition of STAT3 (STAT3 [3]) | mRNA expression of the nine immunesuppressive genes [4] | mRNA expression of the seven immunostimulatory genes [4] | extending the life of the animals (GL261 glioblastoma cells; orthotopic GL261 in C57BL/6 mice, 100% of untreated animals die within 24 days) | tumor burden / tumor growth by bioluminescent imaging (GL261 glioblastoma cells; orthotopic GL261 in right striatum of C57BL/6 mice (FIG. 3)) | association of co-activating proteins with STAT3 (STAT3 [2]; mechanism of STAT3 inhibition) |
| --- | --- | --- | --- | --- | --- | --- | --- | --- | --- | --- |
| O=C1C(O)=C([C@H]2CC[C@H](c3ccc(Cl)cc3)CC2)C(=O)c2ccccc21 [atovaquone] | slowed the growth | slowed the growth | slowed the growth | blocks STAT3 tyrosine phosphorylation | specific inhibitors of STAT3 |  |  |  |  |  |
| CCc1nc(N)nc(N)c1-c1ccc(Cl)cc1 [pyrimethamine] | slowed the growth | slowed the growth | slowed the growth |  | specific inhibitors of STAT3 | decreased expression | increased expression | modest effect | modest effect | blocks the association of co-activating proteins with STAT3 |
